The target of the experiment is T1, Dclk1 (mouse (endogenous in IECs of Dclk1f/f mice and in YAMC cells)) (UniProt Q9JLM8).
T1 sequence: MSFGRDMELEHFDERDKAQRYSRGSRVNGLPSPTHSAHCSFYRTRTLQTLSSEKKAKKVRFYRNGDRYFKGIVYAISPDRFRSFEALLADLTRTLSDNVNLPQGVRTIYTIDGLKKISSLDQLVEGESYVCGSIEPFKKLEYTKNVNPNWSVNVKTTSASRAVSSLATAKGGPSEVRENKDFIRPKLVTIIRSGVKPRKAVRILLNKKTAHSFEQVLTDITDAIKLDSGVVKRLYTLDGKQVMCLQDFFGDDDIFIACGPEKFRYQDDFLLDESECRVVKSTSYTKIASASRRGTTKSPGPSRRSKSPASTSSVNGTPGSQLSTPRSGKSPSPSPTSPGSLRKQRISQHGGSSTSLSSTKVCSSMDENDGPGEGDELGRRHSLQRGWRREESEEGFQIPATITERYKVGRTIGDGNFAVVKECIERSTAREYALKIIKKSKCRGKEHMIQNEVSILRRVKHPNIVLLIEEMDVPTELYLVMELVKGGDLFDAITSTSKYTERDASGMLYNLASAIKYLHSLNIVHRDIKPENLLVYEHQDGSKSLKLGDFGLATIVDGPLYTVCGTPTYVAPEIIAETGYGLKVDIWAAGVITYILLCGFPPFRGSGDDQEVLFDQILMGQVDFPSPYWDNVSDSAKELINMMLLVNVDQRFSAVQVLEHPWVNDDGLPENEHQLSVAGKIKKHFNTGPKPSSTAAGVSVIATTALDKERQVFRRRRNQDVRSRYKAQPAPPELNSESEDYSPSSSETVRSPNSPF
The experiment can be described thus: co-IP; IEC extracts from Dclk1f/f mice at homeostasis, 24 h and 84 h post-TBI (12 Gy); pre-cleared, incubated overnight at 4 °C with antibody recognizing Dclk1, captured on protein A/G-Sepharose; blotted with antibody to ATM or Cox2.

Amino acid sequences for entries named in this document (tags omitted). A change or cut given only in a name is not applied to a line headed by its entry.
UniProt Q62388: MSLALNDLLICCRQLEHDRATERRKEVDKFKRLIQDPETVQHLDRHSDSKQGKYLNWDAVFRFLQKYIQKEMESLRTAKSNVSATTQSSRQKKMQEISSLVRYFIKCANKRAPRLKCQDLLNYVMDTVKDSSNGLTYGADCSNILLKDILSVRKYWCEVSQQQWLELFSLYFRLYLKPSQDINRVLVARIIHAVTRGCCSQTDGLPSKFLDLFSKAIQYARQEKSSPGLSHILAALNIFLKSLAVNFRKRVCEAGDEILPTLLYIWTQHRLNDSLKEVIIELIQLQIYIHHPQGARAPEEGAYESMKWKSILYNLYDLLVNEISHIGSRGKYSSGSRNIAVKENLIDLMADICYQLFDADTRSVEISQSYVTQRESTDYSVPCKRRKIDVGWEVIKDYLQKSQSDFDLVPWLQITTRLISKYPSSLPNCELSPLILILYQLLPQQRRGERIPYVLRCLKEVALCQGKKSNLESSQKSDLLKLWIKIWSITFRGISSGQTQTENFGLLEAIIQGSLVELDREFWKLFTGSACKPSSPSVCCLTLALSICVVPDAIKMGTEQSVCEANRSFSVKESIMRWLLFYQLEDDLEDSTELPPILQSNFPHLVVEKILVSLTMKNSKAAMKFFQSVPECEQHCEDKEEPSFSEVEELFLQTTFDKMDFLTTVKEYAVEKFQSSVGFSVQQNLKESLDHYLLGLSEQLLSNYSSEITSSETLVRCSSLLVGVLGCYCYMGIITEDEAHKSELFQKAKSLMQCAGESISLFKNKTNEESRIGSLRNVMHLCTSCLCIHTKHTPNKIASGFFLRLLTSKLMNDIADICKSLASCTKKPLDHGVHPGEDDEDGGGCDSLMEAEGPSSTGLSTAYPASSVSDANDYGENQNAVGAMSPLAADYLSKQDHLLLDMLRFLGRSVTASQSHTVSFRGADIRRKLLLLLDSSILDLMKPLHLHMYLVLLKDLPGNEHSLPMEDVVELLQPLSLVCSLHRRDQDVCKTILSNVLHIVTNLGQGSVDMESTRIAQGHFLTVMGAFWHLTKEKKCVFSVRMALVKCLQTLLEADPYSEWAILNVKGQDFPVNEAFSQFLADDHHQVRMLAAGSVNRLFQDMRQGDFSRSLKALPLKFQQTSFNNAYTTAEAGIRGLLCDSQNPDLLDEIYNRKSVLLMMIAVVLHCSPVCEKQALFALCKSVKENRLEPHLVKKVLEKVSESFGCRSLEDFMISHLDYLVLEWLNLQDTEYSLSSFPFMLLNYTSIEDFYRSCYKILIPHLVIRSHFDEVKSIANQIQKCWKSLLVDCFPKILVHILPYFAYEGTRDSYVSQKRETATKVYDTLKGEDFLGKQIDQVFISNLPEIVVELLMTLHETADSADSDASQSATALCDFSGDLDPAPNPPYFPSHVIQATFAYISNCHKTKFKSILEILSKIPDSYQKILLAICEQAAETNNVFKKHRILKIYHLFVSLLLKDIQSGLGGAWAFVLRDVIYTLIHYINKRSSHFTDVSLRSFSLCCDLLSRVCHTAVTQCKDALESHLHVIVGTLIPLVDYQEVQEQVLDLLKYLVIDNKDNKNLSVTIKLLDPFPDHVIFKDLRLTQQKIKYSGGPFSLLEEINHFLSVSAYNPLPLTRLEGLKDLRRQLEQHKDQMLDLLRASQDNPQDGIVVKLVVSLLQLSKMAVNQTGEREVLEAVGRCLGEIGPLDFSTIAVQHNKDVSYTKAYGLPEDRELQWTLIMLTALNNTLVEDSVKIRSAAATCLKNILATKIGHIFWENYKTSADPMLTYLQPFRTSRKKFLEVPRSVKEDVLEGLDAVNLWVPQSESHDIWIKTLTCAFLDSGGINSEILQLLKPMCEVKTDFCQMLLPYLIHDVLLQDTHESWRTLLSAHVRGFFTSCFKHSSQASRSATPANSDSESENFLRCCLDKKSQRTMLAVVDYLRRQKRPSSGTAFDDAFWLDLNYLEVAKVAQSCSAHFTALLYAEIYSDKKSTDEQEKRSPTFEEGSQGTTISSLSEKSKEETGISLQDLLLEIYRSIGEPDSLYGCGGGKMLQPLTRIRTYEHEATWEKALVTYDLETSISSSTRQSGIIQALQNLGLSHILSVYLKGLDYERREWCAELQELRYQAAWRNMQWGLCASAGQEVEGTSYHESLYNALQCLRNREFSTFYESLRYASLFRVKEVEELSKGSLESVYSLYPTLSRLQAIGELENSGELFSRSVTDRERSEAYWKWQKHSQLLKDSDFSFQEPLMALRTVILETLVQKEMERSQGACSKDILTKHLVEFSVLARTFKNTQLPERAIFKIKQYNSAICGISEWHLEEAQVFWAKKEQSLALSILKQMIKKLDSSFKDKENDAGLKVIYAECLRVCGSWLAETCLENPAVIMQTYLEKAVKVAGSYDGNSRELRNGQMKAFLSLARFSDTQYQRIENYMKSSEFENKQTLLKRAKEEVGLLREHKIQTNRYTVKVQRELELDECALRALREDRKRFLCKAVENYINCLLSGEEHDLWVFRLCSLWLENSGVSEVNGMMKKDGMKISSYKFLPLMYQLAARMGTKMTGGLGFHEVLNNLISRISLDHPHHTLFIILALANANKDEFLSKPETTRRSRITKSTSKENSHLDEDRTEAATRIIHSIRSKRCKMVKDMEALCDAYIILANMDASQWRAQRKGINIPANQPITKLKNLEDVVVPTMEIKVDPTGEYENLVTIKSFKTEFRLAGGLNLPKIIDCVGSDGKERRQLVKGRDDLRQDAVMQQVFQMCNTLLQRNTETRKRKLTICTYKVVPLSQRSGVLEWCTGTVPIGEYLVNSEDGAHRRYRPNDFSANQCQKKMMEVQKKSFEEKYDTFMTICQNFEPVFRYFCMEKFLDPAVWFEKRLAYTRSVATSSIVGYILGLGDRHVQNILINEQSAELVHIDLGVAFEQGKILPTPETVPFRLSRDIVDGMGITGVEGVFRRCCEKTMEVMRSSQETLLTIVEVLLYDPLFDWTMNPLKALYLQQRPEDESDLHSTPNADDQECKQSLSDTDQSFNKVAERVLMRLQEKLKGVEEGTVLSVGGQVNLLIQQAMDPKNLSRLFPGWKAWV

These are yes or no findings as the source states them, for the method shown. In cells and extracts the contact can be indirect. Some results given as binding are weak or reduced against the parent protein; the word gives no strength.

As for “ATM (ataxia-telangiectasia mutated) (from UniProt Q62388 1-3066)”, the binding result is on record as “binds”.

The values are drawn from paper PMC5120335.
